US20200181263A1
Results are given in words; binding and its absence hold for the method and conditions named. Some entries that bind do so weakly or less than the wild type.

Amino acid sequences for entries named in this document (tags omitted). A change or cut given only in a name is not applied to a line headed by its entry.
UniProt P09693: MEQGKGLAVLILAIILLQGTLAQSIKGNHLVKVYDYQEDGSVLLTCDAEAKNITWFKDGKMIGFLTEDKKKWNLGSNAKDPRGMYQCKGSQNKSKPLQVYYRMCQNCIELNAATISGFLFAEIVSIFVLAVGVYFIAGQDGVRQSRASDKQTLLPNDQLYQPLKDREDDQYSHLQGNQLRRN
UniProt P07766: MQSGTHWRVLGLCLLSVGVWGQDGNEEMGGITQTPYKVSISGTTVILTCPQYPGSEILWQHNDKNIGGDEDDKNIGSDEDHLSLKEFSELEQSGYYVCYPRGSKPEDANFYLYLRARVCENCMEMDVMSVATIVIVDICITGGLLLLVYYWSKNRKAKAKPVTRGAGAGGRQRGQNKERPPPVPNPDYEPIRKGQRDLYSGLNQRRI

B1: PRO734 (protein)
chain 1: DIQMTQSPSSLSASVGDRVTITCQASENIYSFLAWYQQKPGKAPKLLIYSASKLAAGVPSRFSGSGSGTDFTLTISSLQPEDFATYYCQQTNRYSNPDIYNVFGTGTKVTVLGGGGGSGGGGSGGGGSGGGGSEVQLVESGGGLVQPGGSLRLSCAASGIDFNSNYYMCWVRQAPGKGLEWIGCIYVGSHVNTYYANWAKGRFTISRDNSKNTVYLQMNSLRAEDTAVYYCATSGSSVLYFKFWGQGTLVTVSSGGGGSGGGGSDIQMTQSPSSLSASVGDRVTITCQSSQSVFSNNYLAWFQQKPGQSPKRLIYSASTLASGVPSRFSGSGSGTDFTLTISSLQPEDFATYYCLGSYACSSADCYVFGCGTKVTVLGSGGGGSGGGGSDIQMTQSPSSLSASVGDRVTITCQSSESVYSNNQLSWYQQKPGQPPKLLIYDASDLASGVPSRFSGSGSGTDFTLTISSLQPEDFATYYCAGGFSSSSDTAFGGGTKLTVLG
chain 2: DIQMTQSPSSLSASVGDRVTITCQASENIYSFLAWYQQKPGKAPKLLIYSASKLAAGVPSRFSGSGSGTDFTLTISSLQPEDFATYYCQQTNRYSNPDIYNVFGTGTKVTVLGGGGGSGGGGSGGGGSGGGGSEVQLVESGGGLVQPGGSLRLSCAASGIDFNSNYYMCWVRQAPGKGLEWIGCIYVGSHVNTYYANWAKGRFTISRDNSKNTVYLQMNSLRAEDTAVYYCATSGSSVLYFKFWGQGTLVTVSSGGGGSGGGGSEVQLVESGGGLVQPGGSLRLSCAASGFSLSSNAMGWVRQAPGKGLEYIGIISVGGFTYYASWAKGRFTISRDNSKNTVYLQMNSLRAEDTATYFCARDRHGGDSSGAFYLWGQGTLVTVSSSGGGGSGGGGSEVQLVESGGGLVQPGGSLRLSCAASGFSLSSYDMSWVRQAPGKCLAWIGASYASGPTYYASWAKGRFTISRDNSKNTVYLQMNSLRAEDTATYFCARGGWTGTSHSNIWGQGTLVTVSS
B2: PRO736 (protein)
chain 1: DIQMTQSPSSLSASVGDRVTITCQASENIYSFLAWYQQKPGKAPKLLIYSASKLAAGVPSRFSGSGSGTDFTLTISSLQPEDFATYYCQQTNRYSNPDIYNVFGTGTKVTVLGGGGGSGGGGSGGGGSGGGGSEVQLVESGGGLVQPGGSLRLSCAASGIDFNSNYYMCWVRQAPGKGLEWIGCIYVGSHVNTYYANWAKGRFTISRDNSKNTVYLQMNSLRAEDTAVYYCATSGSSVLYFKFWGQGTLVTVSSGGGGSGGGGSDIQMTQSPSSLSASVGDRVTITCQSSQSVFSNNYLAWFQQKPGQSPKRLIYSASTLASGVPSRFSGSGSGTDFTLTISSLQPEDFATYYCLGSYACSSADCYVFGCGTKVTVLGGGGGSGGGGSGGGGSDIQMTQSPSSLSASVGDRVTITCQSSESVYSNNQLSWYQQKPGQPPKLLIYDASDLASGVPSRFSGSGSGTDFTLTISSLQPEDFATYYCAGGFSSSSDTAFGGGTKLTVLG
chain 2: DIQMTQSPSSLSASVGDRVTITCQASENIYSFLAWYQQKPGKAPKLLIYSASKLAAGVPSRFSGSGSGTDFTLTISSLQPEDFATYYCQQTNRYSNPDIYNVFGTGTKVTVLGGGGGSGGGGSGGGGSGGGGSEVQLVESGGGLVQPGGSLRLSCAASGIDFNSNYYMCWVRQAPGKGLEWIGCIYVGSHVNTYYANWAKGRFTISRDNSKNTVYLQMNSLRAEDTAVYYCATSGSSVLYFKFWGQGTLVTVSSGGGGSGGGGSEVQLVESGGGLVQPGGSLRLSCAASGFSLSSYDMSWVRQAPGKCLAWIGASYASGPTYYASWAKGRFTISRDNSKNTVYLQMNSLRAEDTATYFCARGGWTGTSHSNIWGQGTLVTVSSGGGGSGGGGSGGGGSEVQLVESGGGLVQPGGSLRLSCAASGFSLSSNAMGWVRQAPGKGLEYIGIISVGGFTYYASWAKGRFTISRDNSKNTVYLQMNSLRAEDTATYFCARDRHGGDSSGAFYLWGQGTLVTVSS

Target: human CD3 gamma-epsilon single-chain (human) (UniProt P09693+P07766)
Assay: SPR

binding	Binder
binds	B1
binds	B2
